Assay results reported in article doi:10.1101/2022.10.23.513420.
These are yes or no findings as the source states them, for the method shown. Binding seen in cells or lysates may run through a third protein. A result given as binding can be weak or reduced; the word gives no strength.

Target: T1, human JPH2 in pVN155 (pVN155/Jph2) (human) (UniProt Q9BR39)
T1 sequence: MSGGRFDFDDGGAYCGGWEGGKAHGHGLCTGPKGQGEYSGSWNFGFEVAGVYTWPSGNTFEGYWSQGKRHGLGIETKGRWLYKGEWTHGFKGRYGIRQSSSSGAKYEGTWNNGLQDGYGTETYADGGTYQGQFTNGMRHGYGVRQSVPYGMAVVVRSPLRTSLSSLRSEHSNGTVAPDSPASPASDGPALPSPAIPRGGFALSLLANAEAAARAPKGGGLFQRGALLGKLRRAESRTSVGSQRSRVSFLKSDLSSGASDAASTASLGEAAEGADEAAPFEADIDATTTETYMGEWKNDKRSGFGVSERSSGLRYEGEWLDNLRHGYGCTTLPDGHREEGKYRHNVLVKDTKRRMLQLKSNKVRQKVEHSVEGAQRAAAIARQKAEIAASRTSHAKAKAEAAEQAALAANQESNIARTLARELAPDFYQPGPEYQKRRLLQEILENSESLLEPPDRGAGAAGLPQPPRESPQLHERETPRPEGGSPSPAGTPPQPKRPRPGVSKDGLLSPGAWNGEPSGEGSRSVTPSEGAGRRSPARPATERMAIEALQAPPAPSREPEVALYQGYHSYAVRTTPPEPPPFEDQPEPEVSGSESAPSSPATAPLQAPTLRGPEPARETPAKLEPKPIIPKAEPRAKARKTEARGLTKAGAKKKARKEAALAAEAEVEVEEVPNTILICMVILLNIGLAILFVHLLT
Assay: split reporter

mouse JCN in pVC155 (pVC155/Jcn) was tested, and the binding was “binds”.
